Data reported in patent US20080069777A1.
No constants are given. Whether binding was seen depends on the method and setting. Some binding calls cover weakened binding; strength is not graded here.

Chains of the proteins cited; added tags and fusions are not shown. Lines headed by an entry give the natural chain unless they say otherwise; changes in a name come on top.
UniProt P20701: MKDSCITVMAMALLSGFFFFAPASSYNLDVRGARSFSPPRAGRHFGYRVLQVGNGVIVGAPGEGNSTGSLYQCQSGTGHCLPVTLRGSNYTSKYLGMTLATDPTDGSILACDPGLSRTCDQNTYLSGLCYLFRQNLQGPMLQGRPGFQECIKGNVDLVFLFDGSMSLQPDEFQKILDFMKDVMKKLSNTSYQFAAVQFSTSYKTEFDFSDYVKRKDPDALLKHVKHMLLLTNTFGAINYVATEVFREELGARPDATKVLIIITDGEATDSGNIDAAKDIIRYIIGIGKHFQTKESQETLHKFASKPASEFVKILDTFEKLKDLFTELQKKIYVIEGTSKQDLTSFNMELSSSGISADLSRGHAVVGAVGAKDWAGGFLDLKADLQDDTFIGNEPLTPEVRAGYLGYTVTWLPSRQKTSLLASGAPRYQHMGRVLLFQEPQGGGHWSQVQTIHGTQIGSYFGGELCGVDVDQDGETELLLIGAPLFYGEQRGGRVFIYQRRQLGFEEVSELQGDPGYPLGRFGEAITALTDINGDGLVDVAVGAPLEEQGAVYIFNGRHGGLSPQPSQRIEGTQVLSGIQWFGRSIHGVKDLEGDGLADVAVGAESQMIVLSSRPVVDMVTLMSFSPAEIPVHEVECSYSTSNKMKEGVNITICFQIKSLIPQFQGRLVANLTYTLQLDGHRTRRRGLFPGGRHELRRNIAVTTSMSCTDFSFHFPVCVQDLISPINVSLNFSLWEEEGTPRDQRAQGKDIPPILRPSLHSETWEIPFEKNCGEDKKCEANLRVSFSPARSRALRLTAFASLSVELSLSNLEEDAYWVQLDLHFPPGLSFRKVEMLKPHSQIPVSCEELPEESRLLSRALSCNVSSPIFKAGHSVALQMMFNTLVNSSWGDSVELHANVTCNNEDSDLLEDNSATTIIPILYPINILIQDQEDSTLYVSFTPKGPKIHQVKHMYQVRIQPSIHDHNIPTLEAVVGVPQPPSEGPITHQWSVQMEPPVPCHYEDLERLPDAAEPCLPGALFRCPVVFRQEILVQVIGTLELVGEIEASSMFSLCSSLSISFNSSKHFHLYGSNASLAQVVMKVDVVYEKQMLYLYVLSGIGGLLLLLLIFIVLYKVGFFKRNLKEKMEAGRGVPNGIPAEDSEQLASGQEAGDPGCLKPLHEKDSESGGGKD

Key:
[1] = biological target: human wild-type LFA-1 on cells (human) (UniProt P20701); assay: binding to cells with magnesium
[2] = biological target: human wild-type LFA-1 on cells (human) (UniProt P20701); assay: binding to cells (by reference to the Fab)

Row | binding [1] | binding [2] | Binder
1 | binds | – | D2-57 Fab (Fab, V domains shown) VH: EVQLLESGGGLVQPGGSLRLSCAASGFTFSRYVMWWVRQAPGKGLEWVSYIWPSGGNTYYADSVKGRFTISRDNSKNTLYLQMNSLRAEDTAVYYCASSYDFWSNAFDIWGQGTMVTVSS VL: DIQMTQSPSSLSASVGDRVTITCRASQSIGSYLNWYQQKTGKAPKALIYAASSLQSGVPSRFSGSGSGTDFTLTISSLQLEDFATYYCQQSYSTPSFGQGTKVEIKR
2 | – | binds | D2-57 IgG1 (antibody, V domains shown) VH: EVQLLESGGGLVQPGGSLRLSCAASGFTFSRYVMWWVRQAPGKGLEWVSYIWPSGGNTYYADSVKGRFTISRDNSKNTLYLQMNSLRAEDTAVYYCASSYDFWSNAFDIWGQGTMVTVSS VL: DIQMTQSPSSLSASVGDRVTITCRASQSIGSYLNWYQQKTGKAPKALIYAASSLQSGVPSRFSGSGSGTDFTLTISSLQLEDFATYYCQQSYSTPSFGQGTKVEIKR
